The exact form of at least one protein or probe is not confirmed. A weaker result is weaker than the reference pair of the same experiment. For some assays here: At least one verdict rests on a figure or table, not on a statement of the authors.

By UniProt entry, the sequences of proteins in these tests, tags left out.
UniProt P06733, whole entry: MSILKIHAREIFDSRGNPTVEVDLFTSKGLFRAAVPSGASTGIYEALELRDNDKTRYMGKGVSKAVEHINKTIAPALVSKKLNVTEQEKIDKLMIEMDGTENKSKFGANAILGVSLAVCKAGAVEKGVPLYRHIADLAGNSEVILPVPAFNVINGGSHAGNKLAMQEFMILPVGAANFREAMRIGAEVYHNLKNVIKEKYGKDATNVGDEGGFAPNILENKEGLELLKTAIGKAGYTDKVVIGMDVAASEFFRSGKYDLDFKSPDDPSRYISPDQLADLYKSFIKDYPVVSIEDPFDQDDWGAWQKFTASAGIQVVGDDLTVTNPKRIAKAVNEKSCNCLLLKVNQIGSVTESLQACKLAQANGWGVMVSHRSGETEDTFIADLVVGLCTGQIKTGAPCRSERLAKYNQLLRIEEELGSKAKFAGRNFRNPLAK
UniProt P06733, whole entry K343A: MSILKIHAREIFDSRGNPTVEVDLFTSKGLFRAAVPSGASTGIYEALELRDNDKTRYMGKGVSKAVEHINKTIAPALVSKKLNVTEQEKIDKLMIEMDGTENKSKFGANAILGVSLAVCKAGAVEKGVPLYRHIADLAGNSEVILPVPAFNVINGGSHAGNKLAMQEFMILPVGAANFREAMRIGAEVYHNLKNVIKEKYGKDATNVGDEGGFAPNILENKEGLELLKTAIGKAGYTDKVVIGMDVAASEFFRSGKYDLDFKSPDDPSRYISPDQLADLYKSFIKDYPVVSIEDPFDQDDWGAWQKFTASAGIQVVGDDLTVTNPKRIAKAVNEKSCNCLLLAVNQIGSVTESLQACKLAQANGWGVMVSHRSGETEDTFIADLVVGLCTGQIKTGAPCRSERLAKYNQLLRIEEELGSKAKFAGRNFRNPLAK

Results on five sequences are retold here after publication doi:10.1101/2020.10.14.337444.

Series [1] addresses ENO1 wt (Homo sapiens) (UniProt P06733). Briefly: EMSA. On the technique in general: A gel shift assay detects complexes by their altered migration in electrophoresis.
For series [2] the target is unchanged. The experiment in a line: competition EMSA. The settings on record: Ki only in figure.
In series [3] the target is ENO1down K343A (Homo sapiens) (UniProt P06733). Briefly: competition EMSA. The settings on record: Ki only in figure.

Take “CCUCUUUUAUAAAAUAACCCGGUGAAGCAGCCGAG [PABPC1 target 35-mer]”: the binding result in the series with ENO1 wt (Homo sapiens) [1] (2-phosphoglycerate (competes)) and with ENO1 wt (Homo sapiens) [1] (phosphoenolpyruvate (competes)) was “binds more weakly” throughout. Turning to “GGUUCCAGCCCUAGAAGGAUUGCAUUUUACGAUUC [PTP4A1 control 35-mer]”, the binding result with ENO1 wt (Homo sapiens) [2] (probe PTP4A1 target) is reported as “binds more weakly”. For “GCGCCAGAACUACCACCAGGACUCAGAGGCCGCCA [FTH1 control 35-mer]”, the binding result with ENO1 wt (Homo sapiens) [2] (probe FTH1 target) was “binds more weakly”. “CUGCAUGGUAGAGUCUGGUGCCCCCGCCGCCGCCU [PTP4A1 target 35-mer]”: the binding result with ENO1 wt (Homo sapiens) [2] (probe PTP4A1 target) is recorded as “binds”; in series [3] (probe PTP4A1 target), “binds more weakly”. Consider “CCCUCCGUCACCUCUUCACCGCACCCUCGGACUGC [FTH1 target 35-mer]”, for which the binding result is reported as “binds” in the series with ENO1 wt (Homo sapiens) [2] (probe FTH1 target) and “binds more weakly” in series [3] (probe FTH1 target).
